In article PMC5192434:
Results are given in words; binding and its absence hold for the method and conditions named. Binding seen in cells or lysates may run through a third protein. Some binding calls cover weakened binding; strength is not graded here.

Amino acid sequences for entries named in this document (tags omitted).
UniProt Q13029: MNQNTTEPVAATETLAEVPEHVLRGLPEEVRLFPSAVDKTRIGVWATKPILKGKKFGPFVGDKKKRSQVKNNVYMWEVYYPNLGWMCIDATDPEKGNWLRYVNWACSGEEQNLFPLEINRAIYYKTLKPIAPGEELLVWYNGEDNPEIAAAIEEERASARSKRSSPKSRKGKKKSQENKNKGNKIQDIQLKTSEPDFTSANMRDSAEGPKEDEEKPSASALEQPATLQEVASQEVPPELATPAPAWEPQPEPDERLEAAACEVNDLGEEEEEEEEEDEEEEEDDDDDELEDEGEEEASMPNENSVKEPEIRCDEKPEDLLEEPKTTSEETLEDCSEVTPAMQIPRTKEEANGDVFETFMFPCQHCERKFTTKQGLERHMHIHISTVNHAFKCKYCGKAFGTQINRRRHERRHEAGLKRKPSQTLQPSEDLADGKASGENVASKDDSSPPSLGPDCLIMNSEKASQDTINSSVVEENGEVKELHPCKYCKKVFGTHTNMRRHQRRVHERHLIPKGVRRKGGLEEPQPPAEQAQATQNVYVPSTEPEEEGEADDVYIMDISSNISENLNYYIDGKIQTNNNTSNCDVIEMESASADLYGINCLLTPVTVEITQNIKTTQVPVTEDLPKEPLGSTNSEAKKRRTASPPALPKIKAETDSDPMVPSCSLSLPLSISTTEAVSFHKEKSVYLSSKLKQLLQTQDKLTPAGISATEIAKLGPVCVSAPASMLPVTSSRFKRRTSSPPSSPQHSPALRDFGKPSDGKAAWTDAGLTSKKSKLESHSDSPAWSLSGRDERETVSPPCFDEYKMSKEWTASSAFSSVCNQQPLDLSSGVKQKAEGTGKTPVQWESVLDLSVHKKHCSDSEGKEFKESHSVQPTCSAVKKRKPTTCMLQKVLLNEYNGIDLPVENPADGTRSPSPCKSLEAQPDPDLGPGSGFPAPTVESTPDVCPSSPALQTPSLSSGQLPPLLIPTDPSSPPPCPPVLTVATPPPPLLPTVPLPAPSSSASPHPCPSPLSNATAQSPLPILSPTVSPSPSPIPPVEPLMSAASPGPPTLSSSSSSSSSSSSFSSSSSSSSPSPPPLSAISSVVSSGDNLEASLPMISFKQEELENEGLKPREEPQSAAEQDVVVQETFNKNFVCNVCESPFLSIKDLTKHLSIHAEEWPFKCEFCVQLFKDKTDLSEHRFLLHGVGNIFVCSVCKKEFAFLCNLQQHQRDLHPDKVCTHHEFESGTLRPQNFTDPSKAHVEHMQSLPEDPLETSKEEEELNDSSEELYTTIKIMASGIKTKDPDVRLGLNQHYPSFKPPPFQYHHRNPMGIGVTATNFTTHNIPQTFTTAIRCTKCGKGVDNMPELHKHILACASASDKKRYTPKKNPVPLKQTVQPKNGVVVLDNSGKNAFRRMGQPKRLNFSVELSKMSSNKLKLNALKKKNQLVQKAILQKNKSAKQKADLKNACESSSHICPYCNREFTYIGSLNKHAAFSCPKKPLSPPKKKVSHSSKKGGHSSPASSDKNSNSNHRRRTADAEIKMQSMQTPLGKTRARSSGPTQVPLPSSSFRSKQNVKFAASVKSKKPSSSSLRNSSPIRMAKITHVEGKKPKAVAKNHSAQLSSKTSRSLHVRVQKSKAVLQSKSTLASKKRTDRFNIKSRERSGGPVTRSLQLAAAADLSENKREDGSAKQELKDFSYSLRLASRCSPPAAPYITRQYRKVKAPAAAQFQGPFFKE
UniProt A2A7B5: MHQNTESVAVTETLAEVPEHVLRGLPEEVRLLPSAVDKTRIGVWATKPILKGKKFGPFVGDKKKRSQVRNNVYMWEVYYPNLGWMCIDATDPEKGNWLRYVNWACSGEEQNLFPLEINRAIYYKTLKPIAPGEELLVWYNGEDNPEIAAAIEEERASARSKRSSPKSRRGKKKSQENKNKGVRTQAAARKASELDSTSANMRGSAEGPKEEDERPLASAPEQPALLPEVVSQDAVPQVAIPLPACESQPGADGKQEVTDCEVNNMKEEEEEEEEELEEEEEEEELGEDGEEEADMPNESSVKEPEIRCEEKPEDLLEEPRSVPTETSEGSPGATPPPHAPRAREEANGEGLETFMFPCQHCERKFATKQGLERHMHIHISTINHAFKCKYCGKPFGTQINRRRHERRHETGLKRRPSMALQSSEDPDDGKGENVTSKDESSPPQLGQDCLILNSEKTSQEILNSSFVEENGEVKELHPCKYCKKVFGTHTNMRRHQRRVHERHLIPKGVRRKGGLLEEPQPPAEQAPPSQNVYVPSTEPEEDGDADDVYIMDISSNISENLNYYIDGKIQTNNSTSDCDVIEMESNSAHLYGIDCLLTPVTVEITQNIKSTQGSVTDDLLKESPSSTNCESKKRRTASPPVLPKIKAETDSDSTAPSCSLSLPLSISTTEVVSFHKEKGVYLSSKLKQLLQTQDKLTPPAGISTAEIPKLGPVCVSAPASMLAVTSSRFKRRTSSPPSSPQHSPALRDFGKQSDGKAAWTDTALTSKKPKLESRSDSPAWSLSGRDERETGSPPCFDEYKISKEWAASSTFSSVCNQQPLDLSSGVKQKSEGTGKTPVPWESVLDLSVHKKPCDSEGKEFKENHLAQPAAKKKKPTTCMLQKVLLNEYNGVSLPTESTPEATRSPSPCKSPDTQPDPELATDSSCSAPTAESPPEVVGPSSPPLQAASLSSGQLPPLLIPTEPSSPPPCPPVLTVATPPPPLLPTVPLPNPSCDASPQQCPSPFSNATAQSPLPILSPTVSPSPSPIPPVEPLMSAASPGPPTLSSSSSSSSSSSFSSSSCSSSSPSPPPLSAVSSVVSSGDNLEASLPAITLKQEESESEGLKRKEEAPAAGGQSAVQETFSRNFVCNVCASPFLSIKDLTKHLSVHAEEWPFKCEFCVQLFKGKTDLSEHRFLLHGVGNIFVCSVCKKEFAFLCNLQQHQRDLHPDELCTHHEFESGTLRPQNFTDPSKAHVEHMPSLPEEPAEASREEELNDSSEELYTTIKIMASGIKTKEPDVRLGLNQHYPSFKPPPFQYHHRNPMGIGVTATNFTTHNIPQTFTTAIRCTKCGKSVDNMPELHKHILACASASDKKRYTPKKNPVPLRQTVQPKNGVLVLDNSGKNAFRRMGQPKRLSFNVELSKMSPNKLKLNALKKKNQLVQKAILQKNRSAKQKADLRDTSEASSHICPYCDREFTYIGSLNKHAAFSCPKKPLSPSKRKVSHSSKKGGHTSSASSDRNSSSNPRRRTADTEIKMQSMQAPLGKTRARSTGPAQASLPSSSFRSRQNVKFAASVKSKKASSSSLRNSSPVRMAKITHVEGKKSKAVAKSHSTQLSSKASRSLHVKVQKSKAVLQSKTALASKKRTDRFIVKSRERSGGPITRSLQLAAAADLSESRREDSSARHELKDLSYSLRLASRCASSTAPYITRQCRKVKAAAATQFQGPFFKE
UniProt P03372: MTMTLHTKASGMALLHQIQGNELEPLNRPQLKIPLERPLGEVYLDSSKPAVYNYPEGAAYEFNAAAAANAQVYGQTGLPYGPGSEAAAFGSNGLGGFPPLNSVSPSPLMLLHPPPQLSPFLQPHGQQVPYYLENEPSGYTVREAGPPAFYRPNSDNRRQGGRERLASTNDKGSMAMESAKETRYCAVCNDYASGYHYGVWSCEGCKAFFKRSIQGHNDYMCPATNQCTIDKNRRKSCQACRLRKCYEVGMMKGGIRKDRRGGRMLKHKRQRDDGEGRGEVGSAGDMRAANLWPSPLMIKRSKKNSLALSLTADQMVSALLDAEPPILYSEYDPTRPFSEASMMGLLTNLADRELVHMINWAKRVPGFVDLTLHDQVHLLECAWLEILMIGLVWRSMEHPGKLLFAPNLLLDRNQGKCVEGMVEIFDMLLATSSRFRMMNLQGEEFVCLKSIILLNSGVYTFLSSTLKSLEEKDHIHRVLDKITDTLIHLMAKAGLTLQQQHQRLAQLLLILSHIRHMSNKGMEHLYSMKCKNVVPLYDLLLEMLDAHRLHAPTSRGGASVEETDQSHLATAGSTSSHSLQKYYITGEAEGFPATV
UniProt P19785: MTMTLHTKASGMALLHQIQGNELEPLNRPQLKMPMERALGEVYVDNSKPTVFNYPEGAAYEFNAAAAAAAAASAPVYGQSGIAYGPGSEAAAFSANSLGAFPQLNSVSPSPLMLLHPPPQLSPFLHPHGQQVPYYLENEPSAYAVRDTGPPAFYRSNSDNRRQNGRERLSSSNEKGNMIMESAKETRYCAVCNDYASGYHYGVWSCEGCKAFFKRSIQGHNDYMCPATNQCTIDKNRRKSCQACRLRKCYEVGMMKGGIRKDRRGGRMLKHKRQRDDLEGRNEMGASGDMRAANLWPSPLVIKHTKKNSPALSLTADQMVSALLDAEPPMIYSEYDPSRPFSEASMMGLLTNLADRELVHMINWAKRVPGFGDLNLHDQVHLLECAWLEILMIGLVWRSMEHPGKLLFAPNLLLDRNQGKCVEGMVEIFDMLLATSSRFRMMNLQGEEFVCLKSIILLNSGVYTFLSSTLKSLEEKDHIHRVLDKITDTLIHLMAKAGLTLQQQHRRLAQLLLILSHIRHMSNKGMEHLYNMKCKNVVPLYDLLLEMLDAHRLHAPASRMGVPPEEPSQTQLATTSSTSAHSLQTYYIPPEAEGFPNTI

Legend:
[1] = target: RIZ1 (PR+ protein form coded by the PRDM2 gene), human, endogenous in TCam-2 cells (human (endogenous in TCam-2)) (UniProt Q13029); test: co-IP; 1 mg total protein cell lysate of GC-1 or TCam-2 cells incubated with 4 µg rabbit polyclonal anti-RIZ N-20, immunocomplexes pulled down with anti-rabbit IgG beads, Western blot for RIZ and ERα; cells treated with 100 nM 17β-estradiol (E2) for 0, 5, 15, 30 or 60 minutes
[2] = target: RIZ1 (PR+ protein form coded by the PRDM2 gene), human, endogenous in TCam-2 cells (human (endogenous in TCam-2)) (UniProt Q13029); test: condition: only basal condition, cells without E2 treatment; co-IP; as a1, TCam-2 cells in basal condition (no E2 treatment); 1 mg lysate, anti-RIZ N-20, anti-rabbit IgG beads, Western blot for ERα
[3] = target: RIZ1 (PR+ protein form coded by the PRDM2 gene), mouse, endogenous in GC-1 cells (mouse (endogenous in GC-1)) (UniProt A2A7B5); test: co-IP; 1 mg total protein cell lysate of GC-1 or TCam-2 cells incubated with 4 µg rabbit polyclonal anti-RIZ N-20, immunocomplexes pulled down with anti-rabbit IgG beads, Western blot for RIZ and ERα; cells treated with 100 nM 17β-estradiol (E2) for 0, 5, 15, 30 or 60 minutes

estrogen receptor α (ERα), human, endogenous in TCam-2 cells (from UniProt P03372 1-595)
binding [1]: binds | binding [2]: no binding

estrogen receptor α (ERα), mouse, endogenous in GC-1 cells (from UniProt P19785 1-599)
binding [3]: binds
